The subject of the data set is corneally kindled rats. As to the kind of experiment: Corneal kindling (CK) rat model. The format is in vivo, Sprague-Dawley rats. To be noted: p.o. The text has this:
Male Sprague-Dawley rats (purchased from Orient Bio Inc. Korea) of body weight 85-100 g were used for these studies. The MES test using the electroshock seizure apparatus designed by Rodent Shocker Type221 (Hugo Sachs Elektronik, Germany). The kindled rat models were electrically stimulated (8 mA, 60 Hz, 2 s, corneal electrodes) twice daily for 21 days until stage 5 seizure scored by Racine's scale (Racine, 1972) were evoked. The kindled rats were fasted and adapted to test condition, for at least 1 hour before the administration of test material. The drugs were administered orally (p.o.) in a volume of 4 μl/g body weight. The corneally kindled rat model test is a model for generalized […] seizures or bipolar disorder and identifies the compound which prevents seizure or bipolar disorder spread. The shock level was set at 8 mA, 60 Hz and the duration was set at 2 s. A drop of 0.9% saline was placed in each eye, the electrodes were placed over the eyes, and the shock was administered immediately. Pharmacological effects of the test materials were evaluated to compare the test groups (n=6) with a control group (n=6). Control group was administrated vehicle, only. The peak time was determined by administration test material's random dose for 0.5, 1, 2, 4 hour. The time that the most protect was defined peak time and ED50 was determined by other dose administration at peak time. […]

Molecules are shown by their SMILES.

For `NC(=O)O[C@@H]1CCc2cccc(Cl)c2[C@@H]1O` [Example 1, (1S, 2R)-8-chloro-1-hydroxy-1,2,3,4-tetrahydronaphthalen-2-yl carbamate], the “CK Peak Time” value amounted to 2 h.

For the origin of these results see patent US11168052B2, “Carbamate derivative compounds, processes for preparing them and their uses” (BIO-PHARM SOLUTIONS CO., LTD., priority 2016, dated 2021).
